Measurements reported in PubChem BioAssay AID1508588 (Peter MacCallum Cancer Centre, 2020).

Aim: 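Which gene losses make BRAF-mutant melanoma cells more responsive to vemurafenib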 (primary screen)
Cell system: human WM266.4 melanoma cells (BRAF V600 mutant)
Reagent: siRNA pool against human genes, 40 nM
Duration: 96 h from transfection to read-out
Conditions: vemurafenib 300 nM (about IC25), added 48 h after transfection, for 48 h; comparison arm got DMSO vehicle only
Measured: 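Cell gain (DAPI nuclei at end minus before drug, mean of two replicates) and medium lactate by absorbance per cell, both as ratio to non-targeting siRNA, also grouped into fold-change classes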
Reading the numbers: cell gain with vemurafenib: higher = more cell gain than with non-targeting siRNA; lactate per cell with vemurafenib: higher = more lactate made per cell
Call rule: 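a knock-down counts as enhancing when its fold-change classes with vehicle and with vemurafenib, taken together, show a stronger drug effect on cell gain or lactate per cell; exact class pairs not stated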
Calls: active = enhances vemurafenib effect; inactive = no enhancement seen
In all, the deposit lists about 18,000 reagents; below is a random part of them. 790 of them (4.4%) count as active. 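Calls rest on a combination of fold-change classes in drug and vehicle arms, not all shown here.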 Unmarked entries are inactive. Some reagents were tested in more than one well and are listed for each.

| Gene | cell gain with vemurafenib | lactate per cell with vemurafenib |
| --- | --- | --- |
| SPATA4 | 1.09 | 0.99 |
| SERINC3 | 0.98 | 0.47 |
| EGR3 | 0.56 | 0.83 |
| SPRY4 | 0.52 | 1.59 |
| SPRYD3 | 0.76 | 1.81 |
| HK2 | 0.37 | 1.22 |
| EGFLAM | 0.47 | 0.92 |
| KCNG1 | 0.86 | 0.85 |
| ST6GALNAC4 | 0.76 | 0.16 |
| BBS2 | 0.37 | 0.94 |
| PCGF1 | 0.89 | 1 |
| LAMB2 | 0.62 | 1.83 |
| CCL7 | 0.71 | 0.52 |
| ZC3H12A | 0.65 (active) | 0.46 |
| ARGLU1 | 0.43 | 1.21 |
| SMIM15 | 1.04 | 0.77 |
| SDC4 | 0.22 | 2.04 |
| NR1D2 | 0.4 | 0.8 |
| SF1 | 0.54 | 0.42 |
| PKIG | 0.92 | 1.24 |
| HNRNPA3 | 0.83 | 0.66 |
| TRIM51G | 0.98 | 1.25 |
| TRIM51G | 0.2 | 1.42 |
| SHCBP1 | 0.44 | 1.46 |
| LACRT | 0.81 | 0.99 |
| BANP | 0.29 | 0.99 |
| DEK | 0.09 | 1.1 |
| SPAG8 | 0.93 | 0.58 |
| BMP8B | 0.72 | 1.08 |
| MCUR1 | 1.08 | 0.63 |
| PRR25 | 0.05 | 1.71 |
| RNH1 | 0.68 | 0.82 |

Taken from above:
SPRY4, cell gain with vemurafenib: 0.52
EGR3, lactate per cell with vemurafenib = 0.83
BANP, lactate per cell with vemurafenib: 0.99
SHCBP1, lactate per cell with vemurafenib → 1.46
SDC4, cell gain with vemurafenib = 0.22
Result for CCL7 under “cell gain with vemurafenib”: 0.71

More records:
| Gene | cell gain with vemurafenib | lactate per cell with vemurafenib |
| --- | --- | --- |
| LMBRD2 | 0.46 | 1.11 |
| RELN | 0.82 | 1.03 |
| TBC1D3F | 0.81 | 0.64 |
| NAPG | 0.56 | 0.71 |
| CACNG7 | 0.55 | 1.19 |
| TIPE2 | 0.97 (active) | 0.47 |
| TCN1 | 0.52 | 0.89 |
| RASA4 | 0.95 | 0.8 |
| GSTA2 | 0.86 | 0.88 |
| TARBP1 | 1.07 | 0.7 |
| MARS2 | 0.63 | 0.57 |
| FSTL1 | 1.36 | 0.89 |
| UCN3 | 0.92 | 0.85 |
| CNFN | 0.39 | 1.38 |
| ZBTB37 | 0.56 | 0.86 |
| HABP2 | 0.76 | 0.34 |
| DIS3 | 0.54 | 0.87 |
| ZBTB38 | 0.16 (active) | 0.3 |
| FOXE1 | 1.05 | 0.64 |
| H4C15 | 0.99 | 0.75 |
| CDK14 | 0.37 (active) | 0.34 |
| LYRM9 | 0.33 | 1.08 |
| ZBTB7C | 0.29 | 1.69 |
| PGAM1 | 0.75 | 0.58 |
| CYP2A7 | 0.8 | 0.46 |
